# The list shows a part of the results.
# Amino acid sequences for entries named in this document (tags omitted). A change or cut given only in a name is not applied to a line headed by its entry.
# UniProt P08575: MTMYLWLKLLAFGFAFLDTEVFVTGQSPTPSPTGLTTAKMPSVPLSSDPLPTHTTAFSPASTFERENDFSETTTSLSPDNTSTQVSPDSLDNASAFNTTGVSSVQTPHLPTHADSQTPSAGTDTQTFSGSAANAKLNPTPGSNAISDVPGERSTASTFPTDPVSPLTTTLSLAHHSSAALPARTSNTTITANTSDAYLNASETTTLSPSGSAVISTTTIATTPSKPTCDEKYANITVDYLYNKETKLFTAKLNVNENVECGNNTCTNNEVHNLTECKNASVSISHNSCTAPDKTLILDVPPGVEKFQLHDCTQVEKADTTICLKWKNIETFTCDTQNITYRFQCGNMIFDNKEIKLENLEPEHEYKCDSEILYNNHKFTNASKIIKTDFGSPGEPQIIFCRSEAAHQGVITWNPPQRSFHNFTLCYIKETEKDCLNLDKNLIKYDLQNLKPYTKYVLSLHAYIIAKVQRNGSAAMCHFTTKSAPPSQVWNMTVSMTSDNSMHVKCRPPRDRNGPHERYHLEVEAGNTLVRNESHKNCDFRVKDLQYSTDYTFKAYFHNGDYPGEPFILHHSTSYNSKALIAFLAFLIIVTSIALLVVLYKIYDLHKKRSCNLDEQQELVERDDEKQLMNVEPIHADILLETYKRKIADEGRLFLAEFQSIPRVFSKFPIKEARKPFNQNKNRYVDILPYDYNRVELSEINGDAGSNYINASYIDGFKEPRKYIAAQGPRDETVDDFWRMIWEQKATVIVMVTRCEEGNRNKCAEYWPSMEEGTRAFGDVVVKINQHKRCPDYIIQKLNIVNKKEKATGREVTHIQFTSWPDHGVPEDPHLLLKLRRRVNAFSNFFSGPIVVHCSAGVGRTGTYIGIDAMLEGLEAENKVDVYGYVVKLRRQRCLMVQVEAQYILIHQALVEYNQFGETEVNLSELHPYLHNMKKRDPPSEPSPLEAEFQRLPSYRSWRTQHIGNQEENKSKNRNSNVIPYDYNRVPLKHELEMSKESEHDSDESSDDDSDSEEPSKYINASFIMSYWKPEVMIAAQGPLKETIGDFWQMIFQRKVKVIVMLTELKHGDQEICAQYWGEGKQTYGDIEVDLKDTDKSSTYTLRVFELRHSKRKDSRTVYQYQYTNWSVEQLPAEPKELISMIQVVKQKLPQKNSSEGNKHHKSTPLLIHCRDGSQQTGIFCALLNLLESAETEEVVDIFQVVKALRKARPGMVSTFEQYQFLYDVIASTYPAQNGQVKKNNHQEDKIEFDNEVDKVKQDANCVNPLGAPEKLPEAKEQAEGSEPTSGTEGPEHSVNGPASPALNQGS
# UniProt Q9NW64: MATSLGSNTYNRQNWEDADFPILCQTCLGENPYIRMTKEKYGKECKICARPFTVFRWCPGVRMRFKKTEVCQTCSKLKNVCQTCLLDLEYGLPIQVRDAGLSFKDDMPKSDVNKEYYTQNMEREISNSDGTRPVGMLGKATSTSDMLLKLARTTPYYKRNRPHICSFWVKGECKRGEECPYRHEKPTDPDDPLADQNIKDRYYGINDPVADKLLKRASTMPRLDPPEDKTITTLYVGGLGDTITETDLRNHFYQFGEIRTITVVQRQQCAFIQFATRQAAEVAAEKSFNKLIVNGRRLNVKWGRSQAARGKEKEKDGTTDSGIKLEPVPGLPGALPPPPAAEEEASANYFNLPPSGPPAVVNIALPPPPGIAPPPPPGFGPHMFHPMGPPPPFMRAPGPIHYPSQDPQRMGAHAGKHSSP
# UniProt Q9BZE2: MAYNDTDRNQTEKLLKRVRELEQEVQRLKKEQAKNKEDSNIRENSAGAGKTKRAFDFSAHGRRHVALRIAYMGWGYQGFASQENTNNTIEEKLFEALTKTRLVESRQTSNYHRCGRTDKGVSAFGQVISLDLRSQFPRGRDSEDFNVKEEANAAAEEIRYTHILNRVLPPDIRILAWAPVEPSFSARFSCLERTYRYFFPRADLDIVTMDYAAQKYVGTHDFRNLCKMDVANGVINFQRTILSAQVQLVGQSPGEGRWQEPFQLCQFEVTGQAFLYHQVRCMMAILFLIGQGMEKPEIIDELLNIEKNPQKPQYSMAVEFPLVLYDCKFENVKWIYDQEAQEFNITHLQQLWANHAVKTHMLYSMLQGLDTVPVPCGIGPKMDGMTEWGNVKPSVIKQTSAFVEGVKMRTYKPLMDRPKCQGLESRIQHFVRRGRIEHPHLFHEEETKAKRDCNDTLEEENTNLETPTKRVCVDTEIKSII
# UniProt Q12913: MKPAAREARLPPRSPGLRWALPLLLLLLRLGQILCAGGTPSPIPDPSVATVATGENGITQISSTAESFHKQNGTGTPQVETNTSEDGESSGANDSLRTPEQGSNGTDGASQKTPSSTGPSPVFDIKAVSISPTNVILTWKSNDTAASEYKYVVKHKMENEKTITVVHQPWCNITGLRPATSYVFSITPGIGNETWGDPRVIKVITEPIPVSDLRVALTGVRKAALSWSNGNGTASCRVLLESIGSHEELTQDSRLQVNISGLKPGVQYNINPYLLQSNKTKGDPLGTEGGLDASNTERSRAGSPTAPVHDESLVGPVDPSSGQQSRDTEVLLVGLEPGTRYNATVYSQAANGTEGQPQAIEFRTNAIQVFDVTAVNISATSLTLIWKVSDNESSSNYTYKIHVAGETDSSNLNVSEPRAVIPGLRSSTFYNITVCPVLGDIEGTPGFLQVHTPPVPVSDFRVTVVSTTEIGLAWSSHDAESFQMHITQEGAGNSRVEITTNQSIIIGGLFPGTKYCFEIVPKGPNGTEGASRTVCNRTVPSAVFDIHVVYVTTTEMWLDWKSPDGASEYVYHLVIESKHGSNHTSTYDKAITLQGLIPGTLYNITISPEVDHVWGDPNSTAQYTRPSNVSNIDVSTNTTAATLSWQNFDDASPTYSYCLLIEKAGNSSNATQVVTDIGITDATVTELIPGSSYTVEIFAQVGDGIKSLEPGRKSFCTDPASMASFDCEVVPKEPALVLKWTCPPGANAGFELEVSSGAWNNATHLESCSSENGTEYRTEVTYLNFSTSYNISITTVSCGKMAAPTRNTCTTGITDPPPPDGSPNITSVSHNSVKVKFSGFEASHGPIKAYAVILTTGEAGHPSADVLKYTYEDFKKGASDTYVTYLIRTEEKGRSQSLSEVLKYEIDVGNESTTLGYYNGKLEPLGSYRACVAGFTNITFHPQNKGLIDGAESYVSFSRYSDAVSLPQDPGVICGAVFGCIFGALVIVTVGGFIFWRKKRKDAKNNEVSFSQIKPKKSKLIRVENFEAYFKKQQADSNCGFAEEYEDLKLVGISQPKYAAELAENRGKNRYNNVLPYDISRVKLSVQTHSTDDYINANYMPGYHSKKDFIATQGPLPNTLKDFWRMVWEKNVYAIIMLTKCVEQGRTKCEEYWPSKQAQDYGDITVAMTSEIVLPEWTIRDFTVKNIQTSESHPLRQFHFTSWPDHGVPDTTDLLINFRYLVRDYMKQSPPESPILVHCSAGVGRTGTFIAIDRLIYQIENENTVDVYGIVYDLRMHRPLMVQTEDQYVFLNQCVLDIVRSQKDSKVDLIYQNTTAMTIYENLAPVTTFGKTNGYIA
# UniProt O43665: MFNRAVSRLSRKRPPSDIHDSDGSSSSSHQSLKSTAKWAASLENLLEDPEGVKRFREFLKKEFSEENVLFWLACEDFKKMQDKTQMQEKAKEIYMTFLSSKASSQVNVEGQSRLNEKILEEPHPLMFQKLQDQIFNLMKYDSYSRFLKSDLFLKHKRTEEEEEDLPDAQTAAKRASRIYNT
# UniProt Q96HR9: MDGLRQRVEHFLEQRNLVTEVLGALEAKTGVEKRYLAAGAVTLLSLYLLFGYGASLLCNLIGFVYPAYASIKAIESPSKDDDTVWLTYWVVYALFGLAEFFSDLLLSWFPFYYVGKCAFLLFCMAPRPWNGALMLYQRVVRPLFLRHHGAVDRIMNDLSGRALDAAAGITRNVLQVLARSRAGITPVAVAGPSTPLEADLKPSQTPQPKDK
# UniProt Q9BYM8: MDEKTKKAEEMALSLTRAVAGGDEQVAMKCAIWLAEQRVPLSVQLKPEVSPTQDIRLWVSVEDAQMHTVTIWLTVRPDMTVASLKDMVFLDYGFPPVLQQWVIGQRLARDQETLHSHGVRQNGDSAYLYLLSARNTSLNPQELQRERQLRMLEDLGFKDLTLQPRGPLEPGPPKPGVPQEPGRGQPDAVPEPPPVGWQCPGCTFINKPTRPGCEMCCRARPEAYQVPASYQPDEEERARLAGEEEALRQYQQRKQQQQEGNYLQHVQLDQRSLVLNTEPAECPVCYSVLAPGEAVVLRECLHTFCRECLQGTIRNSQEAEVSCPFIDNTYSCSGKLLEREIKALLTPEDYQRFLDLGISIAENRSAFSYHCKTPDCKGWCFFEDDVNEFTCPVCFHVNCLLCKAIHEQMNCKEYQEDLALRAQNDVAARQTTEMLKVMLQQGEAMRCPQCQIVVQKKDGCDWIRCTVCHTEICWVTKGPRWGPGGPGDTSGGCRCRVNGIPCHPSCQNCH
# UniProt Q9BVS4: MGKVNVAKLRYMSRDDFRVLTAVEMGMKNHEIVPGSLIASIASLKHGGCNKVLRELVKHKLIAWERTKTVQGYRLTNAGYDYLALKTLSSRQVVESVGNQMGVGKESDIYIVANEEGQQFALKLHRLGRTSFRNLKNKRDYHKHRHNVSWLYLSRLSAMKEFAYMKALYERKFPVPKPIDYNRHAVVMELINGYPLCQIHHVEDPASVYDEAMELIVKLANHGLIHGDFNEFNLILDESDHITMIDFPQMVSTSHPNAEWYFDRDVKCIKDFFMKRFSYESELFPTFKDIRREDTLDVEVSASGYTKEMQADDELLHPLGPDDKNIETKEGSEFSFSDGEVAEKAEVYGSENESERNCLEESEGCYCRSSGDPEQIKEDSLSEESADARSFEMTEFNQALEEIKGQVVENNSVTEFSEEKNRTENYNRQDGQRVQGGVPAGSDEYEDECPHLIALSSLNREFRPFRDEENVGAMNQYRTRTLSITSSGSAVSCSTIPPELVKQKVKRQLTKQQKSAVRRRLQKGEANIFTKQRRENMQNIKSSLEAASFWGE
# UniProt Q8TDY2, whole entry: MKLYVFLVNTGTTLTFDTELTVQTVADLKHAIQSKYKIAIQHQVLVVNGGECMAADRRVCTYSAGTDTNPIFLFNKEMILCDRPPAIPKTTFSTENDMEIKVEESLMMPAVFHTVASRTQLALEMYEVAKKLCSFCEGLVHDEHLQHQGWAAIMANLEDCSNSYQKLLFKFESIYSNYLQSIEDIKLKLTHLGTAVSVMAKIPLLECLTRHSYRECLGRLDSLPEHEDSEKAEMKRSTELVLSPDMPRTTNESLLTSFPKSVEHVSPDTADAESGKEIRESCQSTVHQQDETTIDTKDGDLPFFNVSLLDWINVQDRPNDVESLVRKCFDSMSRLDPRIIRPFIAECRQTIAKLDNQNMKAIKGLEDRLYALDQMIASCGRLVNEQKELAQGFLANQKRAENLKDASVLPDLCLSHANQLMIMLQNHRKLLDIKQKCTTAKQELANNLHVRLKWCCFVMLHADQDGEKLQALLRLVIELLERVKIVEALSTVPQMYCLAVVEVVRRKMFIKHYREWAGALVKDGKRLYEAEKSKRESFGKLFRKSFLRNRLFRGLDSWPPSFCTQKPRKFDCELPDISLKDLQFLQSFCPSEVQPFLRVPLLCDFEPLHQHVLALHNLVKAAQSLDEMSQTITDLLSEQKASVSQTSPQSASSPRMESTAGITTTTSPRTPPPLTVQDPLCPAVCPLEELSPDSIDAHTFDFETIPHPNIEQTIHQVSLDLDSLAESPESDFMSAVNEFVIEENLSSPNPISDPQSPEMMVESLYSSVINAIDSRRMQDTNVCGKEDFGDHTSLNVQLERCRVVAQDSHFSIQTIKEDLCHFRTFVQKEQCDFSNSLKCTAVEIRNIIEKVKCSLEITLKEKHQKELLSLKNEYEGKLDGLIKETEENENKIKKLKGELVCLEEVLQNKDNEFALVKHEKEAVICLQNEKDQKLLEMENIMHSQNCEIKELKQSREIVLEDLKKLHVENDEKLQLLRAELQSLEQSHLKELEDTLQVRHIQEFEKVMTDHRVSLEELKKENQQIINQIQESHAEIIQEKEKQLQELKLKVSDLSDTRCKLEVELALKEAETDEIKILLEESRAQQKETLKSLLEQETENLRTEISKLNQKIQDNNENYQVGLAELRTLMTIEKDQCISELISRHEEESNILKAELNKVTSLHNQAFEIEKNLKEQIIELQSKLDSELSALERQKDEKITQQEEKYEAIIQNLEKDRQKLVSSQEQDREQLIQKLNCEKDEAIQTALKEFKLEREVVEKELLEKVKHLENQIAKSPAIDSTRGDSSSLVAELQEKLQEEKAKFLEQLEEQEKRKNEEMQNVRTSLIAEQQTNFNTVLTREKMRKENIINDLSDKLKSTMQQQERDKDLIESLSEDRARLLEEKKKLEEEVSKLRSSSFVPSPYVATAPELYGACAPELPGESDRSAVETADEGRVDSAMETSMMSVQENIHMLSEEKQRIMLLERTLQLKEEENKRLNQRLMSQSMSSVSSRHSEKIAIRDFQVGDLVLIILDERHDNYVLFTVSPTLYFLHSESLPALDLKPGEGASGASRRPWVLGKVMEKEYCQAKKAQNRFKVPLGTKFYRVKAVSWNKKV
# Compound: COc1ccc(Cn2ccc3cc(C)c(C(=O)NO)cc32)cc1
# Assay: dose-dependent thermal stabilisation call (2D-TPP, DLPTP, 10% FDR) (binary (1 = stabilised)); higher = stabilised by the compound
# Details: system: HL-60 intact cells; concentration range 0.04-10 µM
# Description: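 2D thermal proteome profiling in intact HL-60 cells treated with BRD-3811 (0, 0.04, 0.29, 2, 10 uM) for 90 min at 37 C, then heated 3 min at one of 12 temperatures (42-63.9 C). Soluble protein was quantified by TMT10 MS. The value is the DLPTP call of the paper: dose-dependent thermal stabilisation over all temperatures at 10% FDR (F-test of a dose-response against a flat model); one experiment, one call per tested protein.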
row,Target,dose-dependent thermal stabilisation call
1,RBM8A (UniProt Q9Y5S9),inactive: 0
2,RAD9A (UniProt Q99638),inactive: 0
3,RBM25 (UniProt P49756),inactive: 0
4,QKI (UniProt Q96PU8),inactive: 0
5,RCE1 (UniProt Q9Y256),inactive: 0
6,PTPRC (UniProt P08575),inactive: 0
7,RAB4A (UniProt P20338),inactive: 0
8,RANGAP1 (UniProt P46060),inactive: 0
9,RBM22 (UniProt Q9NW64),inactive: 0
10,REXO4 (UniProt Q9GZR2),inactive: 0
11,RNF167 (UniProt Q9H6Y7),inactive: 0
12,PUS3 (UniProt Q9BZE2),inactive: 0
13,RAB33B (UniProt Q9H082),inactive: 0
14,PTPRJ (UniProt Q12913),inactive: 0
15,RHEB (UniProt Q15382),inactive: 0
16,RACGAP1 (UniProt Q9H0H5),inactive: 0
17,RAB6A (UniProt P20340),inactive: 0
18,RGS10 (UniProt O43665),inactive: 0

# No new results follow: an excerpt of the list.
row,Target,dose-dependent thermal stabilisation call
12,PUS3 (UniProt Q9BZE2),inactive: 0
13,RAB33B (UniProt Q9H082),inactive: 0

# (continued)

row,Target,dose-dependent thermal stabilisation call
1,RAB4B (UniProt P61018),inactive: 0
2,RNF123 (UniProt Q5XPI4),inactive: 0
3,RG9MTD2 (UniProt Q8TBZ6),inactive: 0
4,RFTN1 (UniProt Q14699),inactive: 0
5,RCOR1 (UniProt Q9UKL0),inactive: 0
6,RC3H1 (UniProt Q5TC82),inactive: 0
7,PTPRG (UniProt P23470),inactive: 0
8,RCOR3 (UniProt Q9P2K3),inactive: 0
9,REEP6 (UniProt Q96HR9),inactive: 0
10,RBCK1 (UniProt Q9BYM8),inactive: 0
11,REEP3 (UniProt Q6NUK4),inactive: 0
12,RIOK2 (UniProt Q9BVS4),inactive: 0
13,RFT1 (UniProt Q96AA3),inactive: 0
14,RABIF (UniProt P47224),inactive: 0
15,RBMS1 (UniProt P29558),inactive: 0
16,PUM1 (UniProt Q14671),inactive: 0
17,RNF14 (UniProt Q9UBS8),inactive: 0
18,RB1CC1 (UniProt Q8TDY2),inactive: 0

# — the supplement of paper PMC7666118
